Measurements: US20220162322A1
Changes are numbered by the printed parent chain. Results are given in words; binding and its absence hold for the method and conditions named. Some binding calls cover weakened binding; strength is not graded here.

The chains behind the UniProt entries cited, without tags or fusion partners. Where a name states a change or a piece, a line headed by the entry shows the natural chain unless it says otherwise.
UniProt Q8WTT0: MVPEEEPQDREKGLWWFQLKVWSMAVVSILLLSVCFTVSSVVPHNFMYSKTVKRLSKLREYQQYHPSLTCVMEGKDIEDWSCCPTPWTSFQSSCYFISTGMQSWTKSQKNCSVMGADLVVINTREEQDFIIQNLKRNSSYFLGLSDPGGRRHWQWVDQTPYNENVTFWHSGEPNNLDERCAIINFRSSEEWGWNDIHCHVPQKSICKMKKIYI

B1: 3E05_var1 (antibody, human IgG1, V domains shown)
VH: EVQLVESGGGLVKPGGSLRLSCAASGFTFSSYTMSWVRQAPGKGLEWVAYISSGGGNTYYPDSVKGRFTISRDNAKNSLYLQMNSLRAEDTAVYYCARHDYYDGGLYYAMDYWGQGTLVTVSS
VL: DIVMTQSPDSLAVSLGERATINCKASQSVDYDGDSSMNWYQQKPGQPPKLLISAASTLESGVPSRFSGSGSGTDFTLTISSLQAEDVAVYYCQQTNEDPPTFGGGTKVEIK
B2: 3E05_var2 (antibody, human IgG1, V domains shown)
VH: B1 VH with E1Q, A49S, P61A
VL: B1 VL
B3: 3E05_var3 (antibody, human IgG1, V domains shown)
VH: B1 VH with N57Q
VL: B1 VL
B4: 3E05_var4 (antibody, human IgG1, V domains shown)
VH: B1 VH with N57Q, D103E
VL: B1 VL
B5: 3E05_var5 (antibody, human IgG1, V domains shown)
VH: B1 VH
VL: B1 VL with A25S, V89T
B6: 3E05_var6 (antibody, human IgG1, V domains shown)
VH: B1 VH with E1Q, A49S, P61A
VL: B1 VL with A25S, V89T
B7: 3E05_var7 (antibody, human IgG1, V domains shown)
VH: B1 VH with N57Q
VL: B1 VL with A25S, V89T
B8: 3E05_var8 (antibody, human IgG1, V domains shown)
VH: B1 VH with N57Q, D103E
VL: B1 VL with A25S, V89T
B9: 3E05_var9 (antibody, human IgG1, V domains shown)
VH: B1 VH
VL: B1 VL with A25S, S53Y, V89T
B10: 3E05_var10 (antibody, human IgG1, V domains shown)
VH: B1 VH with E1Q, A49S, P61A
VL: B1 VL with A25S, S53Y, V89T
B11: 3E05_var11 (antibody, human IgG1, V domains shown)
VH: B1 VH with N57Q
VL: B1 VL with A25S, S53Y, V89T
B12: 3E05_var12 (antibody, human IgG1, V domains shown)
VH: B1 VH with N57Q, D103E
VL: B1 VL with A25S, S53Y, V89T
B13: 3E05_var13 (antibody, human IgG1, V domains shown)
VH: B1 VH
VL: B1 VL with D32E
B14: 3E05_var14 (antibody, human IgG1, V domains shown)
VH: B1 VH with E1Q, A49S, P61A
VL: B1 VL with D32E
B15: 3E05_var15 (antibody, human IgG1, V domains shown)
VH: B1 VH with N57Q
VL: B1 VL with D32E
B16: 3E05_var16 (antibody, human IgG1, V domains shown)
VH: B1 VH with N57Q, D103E
VL: B1 VL with D32E
B17: chimeric mAb 3E05 (parental mouse 3E05 VH/VL on human IgG1) (antibody, V domains shown)
VH: EVKLVESGGGLVKPGGSLKLSCAASGFTFSSYTMSWVRQTPEKRLEWVAYISSGGGNTYYPDSVKGRFTISRDNARNTLYLQMSSLRSEDTAMYYCARHDYYDGGLYYAMDYWGQGTSVTVSS
VL: DIVLTQSPASLAVSLGQRATISCKASQSVDYDGDSSMNWYQQKPGQPPKLLICAASTLESGIPARFSGSGSGTDFTLNIHPVEEEDAATYYCQQTNEDPPTFGGGTKLEIK
B18: chimeric mAb 21E06 (antibody, human IgG1, V domains shown)
VH: EVKLVESGGGLVKSGGSLKLSCEVSGFTFSSYTISWVRQTPEKRLEWVAYISSGGDNAYYPDSVKGRFTISRDNARNTLYLQMSSLRSEDTAMYYCARHLYYGDYFYVMDYWGQGTSVTVSS
VL: B17 VL with S35N, S36C, M37L, N38H, Y40F, C53Y, T57N, T95S
B19: chimeric mAb 25E06 (antibody, human IgG1, V domains shown)
VH: EVKLVESGGGLVKPGGSLKLSCAASGFTFSSYTMSWVRQTPEKRLEWVAYISGVGGDTYYPDSVKGRFTISRDNARNTLYLQMSSLRSEDTAMFYCARHHYSHYFWYFDVWGAGTTVTVSS
VL: B17 VL with S35G, S36F, C53Y, T57N, T73A, T95S

target: BDCA-2 (CLEC4C, CD303) on human plasmacytoid dendritic cells (purified pDC or pDC within PBMC) (human) (UniProt Q8WTT0); assay: flow cytometry on pDC (FIG. 5)

binding, binds:
B1, B2, B3, B4, B5, B6, B7, B8, B9, B10, B11, B12, B13, B14, B15, B16

target: BDCA-2 (CLEC4C, CD303) on human plasmacytoid dendritic cells (purified pDC or pDC within PBMC) (human) (UniProt Q8WTT0); assay: flow cytometry on purified human pDC (FIG. 2)

binding, binds:
B17, B18, B19

target: BDCA-2 (CLEC4C, CD303) on human plasmacytoid dendritic cells (purified pDC or pDC within PBMC) (human) (UniProt Q8WTT0); assay: flow cytometry, 10 ug/ml purified mAb on purified human pDC

binding, binds:
B17, B18, B19
